The nature of the experiment: qHTS Assay for Lipid Storage Modulators in Drosophila S3 Cells.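 As to cell number change: cells counted by Cell Tracker Red CMTPX staining in the red channel.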 The following applies: BODIPY lipid droplet fluorescence, 18-24 h; for cell number change: measured here: cell count max response, cells fed with added oleic acid. The procedure, abridged: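 Laser-scanning cytometry quantifies lipid droplet accumulation (500–530 nm total intensity; droplet/cell object ratio) in oleic acid-fed (400 uM added) Drosophila S3 cells treated with a concentration series. 20 uM Triacsin C defined 100% inhibition.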

The mark [1] stands for this setting: measured here: cell number channel AC50, cells fed with added oleic acid.
Setting [2] is: measured here: lipid fluorescence (Fed channel) AC50, cells fed with added oleic acid.

By AC50 is commonly meant the concentration giving half of the maximal activity seen. Read a low AC50 as activity at low concentration.

This is one part of the list. The main result of the screen is listed elsewhere. These columns were measured beside it and carry no call. Compounds called inactive in the main read-out are mostly missing here. Potencies come from curve fits of mixed quality, noted in brackets.

Consider `CCSc1nc2ccccc2n1C(=O)/C=C/c1ccc(OC)c(OC)c1`, for which the cell number change was -55.3%. Under setting [1], the concentration at half-maximal activity (AC50) is 23.1 µM [falling, partial curve]. Under setting [2], the AC50 was 6.51 µM [falling, full curve].

Turning to `Cc1cc(C(F)(F)F)nc2c(Cl)c(C(C)(C)C)nn12`, the cell number change is 13.5%. Also, the AC50 under setting [2] was 6.51 µM [rising, single point].

Regarding `COC(=O)c1c(NC(NC(C)=O)C(Cl)(Cl)Cl)sc2c1CCCC2` (stereo not drawn), the cell number change was -11.1%. The AC50 under setting [2] was 1.3 µM [falling, partial curve].

`COc1ccc(OC)c(S(=O)(=O)N2CCCC(C(=O)N3CCOCC3)C2)c1` (stereo not drawn): the cell number change is -3.78%.

Consider `CCCn1c(Sc2nnnn2-c2ccccc2)n[nH]c1=O`, for which the cell number change was -2.85%. Moreover, the AC50 under setting [2] was 0.82 µM [falling, single point].

Take `c1ccc(COc2ccc(-c3sc(Nc4ccccc4)n[n+]3-c3ccccc3)cc2)cc1`: the cell number change is -34.7%. For the same compound, under setting [1], the AC50 is 29.1 µM [falling, single point].

With `CCc1cccc2c(C(=O)CSc3nnc(C4CC4)o3)c[nH]c12`, the cell number change is -6.84%. Also, under setting [2], the AC50 is 1.3 µM [falling, full curve, poor fit].

As for `O=C(Cn1[nH]c(=O)c2ccccc2c1=O)OCC(=O)c1ccccc1`, the cell number change worked out at 11.8%. Under setting [2], the half-maximal activity concentration (AC50) is 16.4 µM [falling, single point].

In the case of `CNC(=O)CN(c1cc(OCCOC)c(Cl)cc1Cl)S(=O)(=O)c1ccc(OC)cc1`, the cell number change was -6.65%. Moreover, under setting [2], the AC50 was 3.66 µM [rising, full curve, poor fit].

Turning to `Cc1c(NC(=S)N2CCN(c3ccc(F)cc3)CC2)c(=O)n(-c2ccccc2)n1C`, the cell number change was -9.54%. The AC50 under setting [2] is 0.651 µM [falling, single point].

Regarding `O=[N+]([O-])c1ccccc1NCc1c(O)ccc2ccccc12`, the cell number change was -51.1%. In addition, the AC50 under setting [1] is 13 µM [falling, partial curve, poor fit]. Moreover, under setting [2], the AC50 is 0.206 µM [falling, full curve, poor fit].

In the case of `O=C(OCc1cc(Cl)ccc1OC(F)F)c1cc(S(=O)(=O)O)ccc1O`, under setting [2], the AC50 was 29.1 µM [falling, partial curve].

For the compound `COc1ccc(OC)c(C2Nc3nc4ccccc4n3C(C)=C2C(=O)Nc2ccc(C)cc2C)c1` (stereo not drawn), the cell number change is 14.4%. Further, the AC50 under setting [1] is 0.651 µM [rising, partial curve].

Regarding `CCCc1[nH]nc2c1C(c1c(C)nn(-c3ccccc3)c1Cl)C(C#N)=C(N)O2` (stereo not drawn), under setting [2], the AC50 is 2.91 µM [rising, single point].

As for `O=C(CN1C(=O)S/C(=C\c2cccc(Cl)c2)C1=O)NC1C=CS(=O)(=O)C1` (stereo not drawn), the cell number change was 1.91%. Under setting [1], the AC50 is 6.51 µM [falling, partial curve, poor fit]. Moreover, the AC50 under setting [2] is 4.11 µM [falling, full curve, poor fit].

As for `O=[N+]([O-])c1cccc(C(O)C23CN4CN(CN(C4)C2)C3)c1` (stereo not drawn), the cell number change was 3.23%. Besides, the concentration at half-maximal activity (AC50) under setting [2] was 0.0651 µM [rising, full curve, poor fit].

Turning to `CCS(=O)(=O)c1ccc2c(c1)N(S(=O)(=O)c1ccc(C)cc1)CC(C(=O)O)O2` (stereo not drawn), the cell number change is -16.7%.

With `COc1ccc(/C=C/c2ccc3cccc(O)c3n2)cc1Br`, the cell number change amounted to 231%.

As to `Cc1cc(C)c2cc(CN(Cc3cccs3)Cc3nnnn3CC3CCCO3)c(=O)[nH]c2c1` (stereo not drawn), the cell number change was 3.45%.

On to `CCOC(=O)c1cc(-c2ccc(N)cc2)sc1N`, for which the cell number change turned out to be 110%. For the same compound, the AC50 under setting [1] is 18.4 µM [rising, single point].

On to `Cc1nnc(SCc2cc(=O)[nH]c(N3CCN(Cc4ccccc4)CC3)n2)s1`, for which the cell number change is -10.8%. Also, under setting [2], the AC50 was 0.103 µM [falling, full curve, poor fit].

Turning to `O=C(NC1=NCCS1)c1ccc(Cl)cc1`, the cell number change is -4.97%. Moreover, the AC50 under setting [2] is 3.66 µM [rising, partial curve].

With `Cn1c(=O)c2c(nc(N3CCCCC3)n2CC(O)COc2ccccc2)n(C)c1=O` (stereo not drawn), the cell number change was determined as 14.5%. For the same compound, the AC50 under setting [2] is 29.1 µM [rising, single point].

Turning to `CCOc1cc(N2CCOCC2)c(OCC)cc1NC(=O)COc1ncnc2ccc(Br)cc12`, under setting [1], the AC50 is 0.461 µM [rising, partial curve].

For the compound `O=C(CSc1ccc(-c2cccc([N+](=O)[O-])c2)nn1)NCc1ccccc1`, the cell number change was -5.24%.

Regarding `Cc1ccc(S(=O)(=O)c2ccc(Oc3cccc(C)c3)cc2)cc1`, the cell number change worked out at 9.37%. In addition, the AC50 under setting [2] was 0.291 µM [falling, full curve, poor fit].

Consider `CC1(C)C2CC=C(/C=N/n3cnnc3)C1C2` (stereo not drawn), for which the cell number change came out at 81.9%.

In the case of `O=C(CSc1nnc(CNc2ccc(F)cc2)n1Cc1ccccc1)NCc1ccccc1`, the cell number change was -30.2%. Further, the AC50 under setting [1] is 18.4 µM [falling, single point]. Under setting [2], the AC50 is 25.9 µM [falling, partial curve].

As for `Cn1cccc1Cc1nnc(SCC(=O)N2CCCCCC2)n1-c1ccc(F)cc1`, the cell number change was -1.1%.

For `CC(=O)N[C@@H](C)C(=O)N1CCC(n2nccc2NC(=O)CCCc2ccccc2)CC1`, the cell number change is -39.3%. Moreover, the AC50 under setting [1] was 32.6 µM [falling, single point].

`Cc1ccc(S(=O)(=O)NNC(=O)CCCCC(=O)NNS(=O)(=O)c2ccc(C)cc2)cc1`: the cell number change is -49.2%. For the same compound, the AC50 under setting [1] is 29.1 µM [falling, single point].

With `O=C(O)C1CC1(c1ccccc1)c1ccccc1` (stereo not drawn), the cell number change amounted to 41.2%. Under setting [1], the AC50 was 29.1 µM [rising, single point]. Moreover, the AC50 under setting [2] is 29.1 µM [rising, single point].

Regarding `CC(=O)c1cccc(OCC(=O)N2CCCc3ccccc32)c1`, the cell number change was -4.62%.

In the case of `CN1CCCN(S(=O)(=O)c2ccc(Cl)c(Cl)c2)CC1`, the cell number change was -29.8%. Besides, the AC50 under setting [1] is 0.231 µM [falling, full curve]. Further, under setting [2], the AC50 is 2.06 µM [falling, partial curve].

For the compound `N#Cc1ccc(-c2ccc(OCC(=O)NCC(=O)Nc3ccc(F)c(F)c3F)cc2)cc1`, the cell number change amounted to 15.1%. The AC50 under setting [2] was 16.4 µM [rising, partial curve].

Turning to `CC(C)(C)C(=O)Nc1cccc(C(=O)c2cccc(NC(=O)C(C)(C)C)c2)c1`, the cell number change is 4.05%. Moreover, under setting [2], the AC50 was 0.58 µM [rising, single point].

`S=C(NCc1ccccc1)Nc1cccc2ccccc12`: the AC50 under setting [2] was 5.01 µM [rising, partial curve].

As to `Cc1ccc(C)c(N2CCN(S(=O)(=O)c3c(C)[nH]c(C)c3C(=O)N3CCCC3)CC2)c1`, the cell number change was -33.6%. Besides, the AC50 under setting [1] is 29.1 µM [falling, single point].

As to `Cc1ccc2oc(C(=O)NCc3ccc(S(N)(=O)=O)cc3)cc(=O)c2c1`, the cell number change stood at 129%. Also, under setting [1], the AC50 was 29.1 µM [rising, single point]. The AC50 under setting [2] was 29.1 µM [falling, partial curve, poor fit].

Values taken from PubChem BioAssay AID2685 (National Center for Advancing Translational Sciences (NCATS), 2010).
